Source: patent publication US20110230447A1, “OSTEOGENESIS PROMOTER COMPRISING [4-(METHYLTHIO)PHENYLTHIO]METHANEBISPHOSPHONIC ACID OR PHARMACEUTICALLY ACCEPTABLE SALT THEREOF AS ACTIVE INGREDIENT” (Tohoku University, priority 2008, published 2011)

Tested on: calvariae (bone organ culture system of a mouse)
Experiment: Bone organ culture system of mouse calvariae, staining and confocal laser scanning microscopy
Assay type: cell-based
Method: Using the bone organ culture system, what kind of effects MPMBP has on production of the bone matrix was studied. From 3-6 day old mice, calvariae were collected aseptically. These were cultured using the Stern and Krieger method (Calcif Tissue hit 1983; 35: 172-17) with DMEM (10% bovine serum supplementation, no supplementation of heparin, supplementation or no supplementation of LPS 10 μg/ml) for 48 hours. After completion of culturing, with the method described by Suzuki, Takeyama et al (J Histochem Cytochem 2005; 53: 1525-1537), a double staining of the type I collagen and alkaline phosphatase (FIG. 6 and FIG. 8), a double staining of the type I collagen and alizarin red (FIG. 7), and an immunohistochemical staining using the type I collagen (FIG. 9) were performed, and using a confocal laser scanning microscope, they were observed.
The upper panels are Nomarski differential interference contrast images of the bone surface. The middle panels are images of the bone surface after the double staining of the type I collagen and alkaline phosphatase was performed, and the lower panels are images of the bone section after the double staining of the type I collagen and alkaline phosphatase was performed, respectively. […]

**Q.** `NCCCC(O)(P(=O)(O)O)P(=O)(O)O` [alendronate, reference compound] was tested. Which “concentration indicating the same level of the inhibitory action of the bone resorption in the bone organ culture system” value did it give?
**A.** Its value is 2.0 µM.
